Measurements from publication PMC11073986.
Results are given in words; binding and its absence hold for the method and conditions named. In cells and extracts the contact can be indirect. Tags and fused reporters may be left off the sequences shown.

Amino acid sequences for entries named in this document (tags omitted).
UniProt Q969R5: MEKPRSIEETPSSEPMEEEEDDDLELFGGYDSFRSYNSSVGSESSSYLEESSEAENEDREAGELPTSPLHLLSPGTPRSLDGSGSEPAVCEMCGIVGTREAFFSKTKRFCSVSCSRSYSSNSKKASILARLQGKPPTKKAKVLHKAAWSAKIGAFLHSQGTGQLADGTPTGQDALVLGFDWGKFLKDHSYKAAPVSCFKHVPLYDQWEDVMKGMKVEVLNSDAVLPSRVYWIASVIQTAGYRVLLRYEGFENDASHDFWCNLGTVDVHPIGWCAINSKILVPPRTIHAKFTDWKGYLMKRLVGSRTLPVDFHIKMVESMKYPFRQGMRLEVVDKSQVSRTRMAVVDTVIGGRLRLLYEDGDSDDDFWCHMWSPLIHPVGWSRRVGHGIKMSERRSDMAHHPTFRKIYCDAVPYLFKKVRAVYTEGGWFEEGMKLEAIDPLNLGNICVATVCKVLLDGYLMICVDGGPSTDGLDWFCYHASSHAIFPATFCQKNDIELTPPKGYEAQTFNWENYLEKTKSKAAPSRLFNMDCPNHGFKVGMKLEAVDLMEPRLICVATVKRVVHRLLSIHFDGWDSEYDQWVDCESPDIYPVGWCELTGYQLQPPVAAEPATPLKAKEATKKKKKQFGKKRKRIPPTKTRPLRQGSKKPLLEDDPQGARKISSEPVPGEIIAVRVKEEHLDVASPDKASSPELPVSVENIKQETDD

T1: MGA p.C623* (Flag-tagged truncation of Max-gene associated protein) (human) (UniProt Q8IWI9)
T1 sequence: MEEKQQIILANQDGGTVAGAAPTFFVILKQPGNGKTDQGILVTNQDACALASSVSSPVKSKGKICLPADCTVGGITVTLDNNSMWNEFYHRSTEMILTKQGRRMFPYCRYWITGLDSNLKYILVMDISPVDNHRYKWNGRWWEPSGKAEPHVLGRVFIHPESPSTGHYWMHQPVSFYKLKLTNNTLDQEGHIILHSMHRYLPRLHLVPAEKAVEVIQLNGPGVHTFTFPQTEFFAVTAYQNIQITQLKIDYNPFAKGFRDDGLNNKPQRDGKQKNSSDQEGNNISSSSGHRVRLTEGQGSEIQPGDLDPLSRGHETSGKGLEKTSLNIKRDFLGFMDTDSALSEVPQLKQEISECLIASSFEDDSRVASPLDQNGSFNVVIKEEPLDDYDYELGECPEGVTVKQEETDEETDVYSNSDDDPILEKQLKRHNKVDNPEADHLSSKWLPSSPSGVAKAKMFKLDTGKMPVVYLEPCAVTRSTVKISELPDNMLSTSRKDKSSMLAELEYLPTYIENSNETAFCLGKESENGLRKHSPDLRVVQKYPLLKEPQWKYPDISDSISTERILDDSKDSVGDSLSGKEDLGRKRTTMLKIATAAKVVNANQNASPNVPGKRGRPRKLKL

B1: PCGF6 (protein, UniProt Q9BYE7 1-350)
chain: MEGVAVVTAGSVGAAKTEGAAALPPPPPVSPPALTPAPAAGEEGPAPLSETGAPGCSGSRPPELEPERSLGRFRGRFEDEDEELEEEEELEEEEEEEEEDMSHFSLRLEGGRQDSEDEEERLINLSELTPYILCSICKGYLIDATTITECLHTFCKSCIVRHFYYSNRCPKCNIVVHQTQPLYNIRLDRQLQDIVYKLVINLEEREKKQMHDFYKERGLEVPKPAVPQPVPSSKGRSKKVLESVFRIPPELDMSLLLEFIGANEGTGHFKPLEKKFVRVSGEATIGHVEKFLRRKMGLDPACQVDIICGDHLLEQYQTLREIRRAIGDAAMQDGLLVLHYGLVVSPLKIT

Biological target: T1, MGA p.C623* (Flag-tagged truncation of Max-gene associated protein) (human)
Test: co-IP; flag-tagged MGA constructs co-expressed with HA-tagged MAX in HEK293T cells; immunoprecipitation followed by western blot probed for components of the ncPRC1.6 complex

Row | Molecule | binding
1 | L3MBTL2 (from UniProt Q969R5 1-705) | no binding
2 | B1 | no binding
